According to patent publication US6482921B1 (Essential Therapeutics, Inc., priority 1999, dated 2002):

Assay: general procedure: solution-phase peptide synthesis; pentafluorophenyl ester
Details: late stage modification step, TFA salt

Substance | step yield
Dihydropacidamycin 1 | 10% yield
Dihydropacidamycin 4 | 26% yield
Tetrahydropacidamycin D | 5% yield
